Experimental findings from paper PMC10457348 are described below.

Results are given in words; binding and its absence hold for the method and conditions named. Some entries that bind do so weakly or less than the wild type.

For the assay, the target named is T1, Duffy antigen receptor for chemokines (DARC) on Duffy positive (Fy+) human red blood cells (human (endogenous in red blood cells)) (UniProt Q16570).
T1 sequence: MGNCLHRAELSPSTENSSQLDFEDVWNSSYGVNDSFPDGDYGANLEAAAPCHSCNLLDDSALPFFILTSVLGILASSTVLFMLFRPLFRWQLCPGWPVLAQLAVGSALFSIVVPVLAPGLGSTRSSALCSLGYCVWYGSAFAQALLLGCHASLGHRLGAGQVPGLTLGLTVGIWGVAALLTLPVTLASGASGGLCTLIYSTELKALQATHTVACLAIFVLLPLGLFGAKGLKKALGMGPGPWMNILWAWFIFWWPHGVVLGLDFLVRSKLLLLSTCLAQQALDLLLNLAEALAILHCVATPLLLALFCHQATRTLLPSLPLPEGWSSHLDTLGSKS
The assay can be described thus: erythrocyte binding assay; 1 x 10^8 human RBCs (Fy+ or Fy-) with 1 ug PvDBPII in RPMI 1640, 10% FBS, 45 min, room temperature; spun through silicone/nujol oil; bound protein eluted with 300 mM NaCl and detected by Western blotting; only the binder purified. On the technique in general: A western blot detects proteins with antibodies after separation by electrophoresis.

For “Recombinant Plasmodium vivax Duffy Binding Protein region II, variant Salvador I (PvDBPII SalI) (from UniProt P22290 211-525) (domain or fragment)”, the binding result is “binds”.
